The supplement of paper PMC8007513
This is one part of the list. Most values come without repeats; read them as rough.

Tested on: Saccharomyces cerevisiae BY4743
Assay: growth (OD600) relative to untreated control; higher = less growth inhibition
Conditions: compound concentration: 133 uM; 20 h
Description: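 NMCCC compounds (133 uM, no IPBC) tested alone against Saccharomyces cerevisiae BY4743 in YPD, 96-well plates, starting OD600 ~0.1. Growth was read as OD600 at 20 h and expressed as % of the untreated control. Single pass.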

SMILES	growth [%]
COCc1nc2ccccc2n1CC(O)COc1ccccc1 (stereo unspecified)	110
Cc1cc(-c2ccco2)n(CC(=O)NCc2ccccc2Cl)n1	105
Cn1cnc(S(=O)(=O)N2CC(OCc3ccc(Cl)cc3)C2)c1	87.3
CCOc1ccc(C(=O)NC(c2ccc(C)cc2)c2cccnc2)cc1 (stereo unspecified)	108
CC1=CC(=NO1)COC(=O)C/2=C/N3CC[S](=O)(=O)/N=C3/C=C2	95.1
CCN1CCCC1CNC(=O)c1cnc(SC)nc1-c1ccccc1 (stereo unspecified)	112
Cc1cccc(C)c1N1C(=O)N(CC(=O)NC(C)C)c2ccccc2S1(=O)=O	108
C\C1=C\C(C)(C)N2C(=O)C(=O)C3=CC(=CC1=C23)O	95.4
CC/1=C/C(=O)N(/C=N1)C(NC(=O)C2=CC=CC=C2)C(=O)C3=CC=CC=C3 (stereo unspecified)	93.3
Cc1nc(-c2ccccc2)c(C(=O)OCC(=O)c2ccc[nH]2)s1	105
CC(C)C1C(=O)Nc2ccc(S(=O)(=O)N3CCCCCC3)cc21 (stereo unspecified)	109
Clc1snnc1CSc1nccn1-c1ccccc1	104
CCOC(=O)c1cc2c(OC)ccc(OC)c2n1CC(=O)c1ccccc1	90.5
COC(=O)c1ccccc1S(=O)(=O)NCc1nc2nc(C)cc(C)n2n1	105
COc1ccc(N(C)C(=O)CN(C)S(=O)(=O)c2ccc3c(c2)c(=O)n(C)c(=O)n3C)c(OC)c1	99.9
FC(F)(F)C/1=C/N(CC2=CC=CC(=C2)[S](=O)(=O)N3CCOCC3)C(=O)/C(=C1)Cl	107

Two consecutive compounds out of the list so far:
SMILES	growth [%]
CC(C)C1C(=O)Nc2ccc(S(=O)(=O)N3CCCCCC3)cc21 (stereo unspecified)	109
Clc1snnc1CSc1nccn1-c1ccccc1	104
